Results are given in words; binding and its absence hold for the method and conditions named. Binding seen in cells or lysates may run through a third protein. Some entries that bind do so weakly or less than the wild type.
How the values were obtained:
[1] = target: TLR4 (mouse (endogenous in bone marrow neutrophils)) (UniProt Q9QUK6); experiment: co-IP; IP with TLR4 antibody from lysates of mouse neutrophils without LPS treatment; immunoblot for p-Syk, CEACAM1
[2] = target: Src family kinase Lyn (mouse (endogenous in bone marrow neutrophils)) (UniProt P25911); experiment: co-IP; IP with anti-Lyn antibody from WT and KO neutrophils, with or without LPS (100 ng/ml); immunoblot for Syk, CEACAM1, Lyn
[3] = target: TLR4 (mouse (endogenous in bone marrow neutrophils)) (UniProt Q9QUK6); experiment: co-IP; IP with TLR4 antibody from lysates of WT and Ceacam1-/- mouse neutrophils, with or without LPS (100 ng/ml); immunoblot for TLR4, Syk, p-Syk, CEACAM1

Amino acid sequences for entries named in this document (tags omitted). Residues count along the entry.
UniProt Q9QUK6, residues 26-835: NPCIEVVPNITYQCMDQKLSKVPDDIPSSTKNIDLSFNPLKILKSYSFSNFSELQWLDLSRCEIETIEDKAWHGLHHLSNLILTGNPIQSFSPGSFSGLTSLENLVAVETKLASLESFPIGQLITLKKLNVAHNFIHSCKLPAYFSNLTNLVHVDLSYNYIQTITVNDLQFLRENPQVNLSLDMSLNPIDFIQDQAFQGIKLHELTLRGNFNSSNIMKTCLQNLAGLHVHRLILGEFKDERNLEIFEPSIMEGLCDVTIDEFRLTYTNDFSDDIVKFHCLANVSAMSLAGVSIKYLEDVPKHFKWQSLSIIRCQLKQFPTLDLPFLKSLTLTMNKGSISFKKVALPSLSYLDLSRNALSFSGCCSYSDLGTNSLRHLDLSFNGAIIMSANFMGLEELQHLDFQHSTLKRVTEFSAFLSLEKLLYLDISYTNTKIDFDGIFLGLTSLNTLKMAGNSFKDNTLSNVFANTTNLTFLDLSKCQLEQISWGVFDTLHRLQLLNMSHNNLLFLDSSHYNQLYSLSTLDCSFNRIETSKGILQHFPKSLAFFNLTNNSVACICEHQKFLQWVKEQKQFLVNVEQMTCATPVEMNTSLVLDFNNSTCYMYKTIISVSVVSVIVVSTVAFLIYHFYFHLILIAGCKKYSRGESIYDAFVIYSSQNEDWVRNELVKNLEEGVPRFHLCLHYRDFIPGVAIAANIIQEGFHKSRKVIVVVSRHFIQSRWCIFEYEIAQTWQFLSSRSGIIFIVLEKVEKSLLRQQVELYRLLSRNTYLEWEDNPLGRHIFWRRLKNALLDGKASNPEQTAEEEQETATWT
UniProt P25911: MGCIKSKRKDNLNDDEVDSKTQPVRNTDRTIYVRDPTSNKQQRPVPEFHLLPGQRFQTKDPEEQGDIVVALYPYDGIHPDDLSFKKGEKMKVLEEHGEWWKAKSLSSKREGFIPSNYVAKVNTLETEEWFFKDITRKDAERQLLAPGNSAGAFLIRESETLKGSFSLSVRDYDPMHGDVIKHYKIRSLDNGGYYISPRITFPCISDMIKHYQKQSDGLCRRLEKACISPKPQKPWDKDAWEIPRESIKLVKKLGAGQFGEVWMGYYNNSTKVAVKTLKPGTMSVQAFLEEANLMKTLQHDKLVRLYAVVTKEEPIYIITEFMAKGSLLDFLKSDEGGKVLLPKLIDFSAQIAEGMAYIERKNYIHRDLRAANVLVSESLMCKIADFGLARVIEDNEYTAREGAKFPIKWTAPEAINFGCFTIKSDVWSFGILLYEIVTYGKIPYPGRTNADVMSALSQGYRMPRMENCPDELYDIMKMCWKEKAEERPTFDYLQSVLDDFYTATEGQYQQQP

B1: CEACAM1 (receptor, UniProt P31809 35-521)
chain: EVTIEAVPPQVAEDNNVLLLVHNLPLALGAFAWYKGNTTAIDKEIARFVPNSNMNFTGQAYSGREIIYSNGSLLFQMITMKDMGVYTLDMTDENYRRTQATVRFHVHPILLKPNITSNNSNPVEGDDSVSLTCDSYTDPDNINYLWSRNGESLSEGDRLKLSEGNRTLTLLNVTRNDTGPYVCETRNPVSVNRSDPFSLNIIYGPDTPIISPSDIYLHPGSNLNLSCHAASNPPAQYFWLINEKPHASSQELFIPNITTNNSGTYTCFVNNSVTGLSRTTVKNITVLEPVTQPFLQVTNTTVKELDSVTLTCLSNDIGANIQWLFNSQSLQLTERMTLSQNNSILRIDPIKREDAGEYQCEISNPVSVRRSNSIKLDIIFDPTQGGLSDGAIAGIVIGVVAGVALIAGLAYFLYSRKSGGGSDQRDLTEHKPSTSNHNLAPSDNSPNKVDDVAYTVLNFNSQQPNRPTSAPSSPRATETVYSEVKKK
For B1, the binding [1] was “no binding (condition: neutrophils without LPS)”, the binding [2] was “binds” and the binding [3] was “binds”.
